Test [1] deals with T1, Caveolin-1 (overexpressed from pEX4-Cav1) (UniProt P41350).
T1 sequence: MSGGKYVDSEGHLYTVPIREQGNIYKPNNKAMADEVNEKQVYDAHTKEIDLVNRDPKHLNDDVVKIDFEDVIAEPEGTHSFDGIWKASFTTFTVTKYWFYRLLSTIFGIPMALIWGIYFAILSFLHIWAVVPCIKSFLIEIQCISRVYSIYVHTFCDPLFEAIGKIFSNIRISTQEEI
In words: co-IP; rat AFCs transfected with pEX4-Cav1 or pcDNA3.1-Integrin β1 for 48 h; modified RIPA lysate, pre-cleared; 1 μg anti-Cav1, anti-integrin β1 or IgG overnight at 4 °C; Agarose A+G; Western blot. A general note: A western blot detects proteins with antibodies after separation by electrophoresis.

The chains behind the UniProt entries cited, without tags or fusion partners. Residues count along the entry.
UniProt P49134, residues 21-799: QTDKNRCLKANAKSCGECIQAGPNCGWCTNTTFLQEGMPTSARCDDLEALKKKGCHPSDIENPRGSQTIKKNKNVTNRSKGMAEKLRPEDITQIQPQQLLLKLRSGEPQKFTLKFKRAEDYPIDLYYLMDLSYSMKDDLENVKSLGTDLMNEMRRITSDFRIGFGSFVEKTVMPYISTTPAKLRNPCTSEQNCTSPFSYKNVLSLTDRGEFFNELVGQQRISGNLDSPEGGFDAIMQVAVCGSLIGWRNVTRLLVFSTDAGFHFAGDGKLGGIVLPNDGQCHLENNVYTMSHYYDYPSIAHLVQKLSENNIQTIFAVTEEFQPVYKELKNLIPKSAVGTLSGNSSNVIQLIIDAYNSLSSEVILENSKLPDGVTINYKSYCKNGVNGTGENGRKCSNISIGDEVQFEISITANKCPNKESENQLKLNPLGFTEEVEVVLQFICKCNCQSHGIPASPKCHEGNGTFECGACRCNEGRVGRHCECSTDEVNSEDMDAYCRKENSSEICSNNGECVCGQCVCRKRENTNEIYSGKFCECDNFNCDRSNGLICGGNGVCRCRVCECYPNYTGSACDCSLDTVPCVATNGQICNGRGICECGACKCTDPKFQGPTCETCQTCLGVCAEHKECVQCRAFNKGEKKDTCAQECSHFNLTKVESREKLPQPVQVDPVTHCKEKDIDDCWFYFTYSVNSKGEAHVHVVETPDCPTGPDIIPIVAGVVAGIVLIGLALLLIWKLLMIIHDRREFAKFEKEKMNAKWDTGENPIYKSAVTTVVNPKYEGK
UniProt Q7TQN4: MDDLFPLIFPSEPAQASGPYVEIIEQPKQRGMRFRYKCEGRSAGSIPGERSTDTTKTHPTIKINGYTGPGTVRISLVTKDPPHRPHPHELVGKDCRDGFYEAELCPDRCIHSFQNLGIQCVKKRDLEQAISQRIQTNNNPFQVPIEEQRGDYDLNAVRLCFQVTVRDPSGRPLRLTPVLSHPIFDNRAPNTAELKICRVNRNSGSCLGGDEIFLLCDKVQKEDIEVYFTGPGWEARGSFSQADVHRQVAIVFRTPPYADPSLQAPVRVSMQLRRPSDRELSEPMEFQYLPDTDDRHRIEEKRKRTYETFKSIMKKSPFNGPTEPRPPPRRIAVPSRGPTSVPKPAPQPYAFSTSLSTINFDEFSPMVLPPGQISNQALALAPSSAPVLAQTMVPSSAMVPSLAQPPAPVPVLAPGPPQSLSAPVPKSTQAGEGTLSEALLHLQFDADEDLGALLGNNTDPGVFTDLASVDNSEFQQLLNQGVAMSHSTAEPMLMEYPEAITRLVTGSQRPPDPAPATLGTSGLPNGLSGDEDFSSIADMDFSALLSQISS

Test [2] has as its target Integrin β1 (overexpressed from pcDNA3.1-Integrin β1) (UniProt P49134). Described as above.

No constants are given. Whether binding was seen depends on the method and setting. Binding seen in cells or lysates may run through a third protein. Some results given as binding are weak or reduced against the parent protein; the word gives no strength.

In the case of “Integrin β1 (endogenous in AFCs) (from UniProt P49134 21-799) (receptor)”, the binding entry in test [1] is recorded as “binds”.
As for “p65 (NF-κB subunit) (from UniProt Q7TQN4 1-550)”, the binding entry in test [2] and in test [1] was “no binding” in each case.

B1: Caveolin-1 (endogenous in AFCs) (protein, UniProt P41350 1-178)
chain: T1 sequence
On to B1, for which, in test [2], the binding entry is listed as “binds”.

(Values after paper PMC8040478.)
